PubChem BioAssay AID1159579 – Peter MacCallum Cancer Centre | 2015

Test: 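Follow-up screen seeking modulators of motility in lymphatic endothelial cells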 (follow-up of hits)
Cells: human dermal lymphatic endothelial cells
Reagent: single siRNA against human genes, 25 nM
Detection: 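Scratch wound imaging measuring area filled by moving cells plus nuclei number, averaged over two wells and scaled to mock-transfected controls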
Scale: migration relative to mock: higher = more migration into the scratch; mean nuclei count: higher = more cells remaining
Active means: 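a ratio of at most 0.6 or at least 1.3 marks altered migration and an active call; a mean nuclei count under 3300 forces an inactive call regardless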
Meaning of the calls: active = migration changed (impaired or accelerated); inactive = no migration change, or too few cells
The deposit covers about 2,000 reagents; this is a random part of them. 549 of all reagents (27%) were called active. 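Some migration ratios are negative; siRNAs with too few cells are inactive whatever their migration ratio.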 Entries without a mark were called inactive. The numbers tell different reagents against one gene apart. The record does not give: the time to read-out.

no.	gene	reagent no.	migration relative to mock	migration and cell number class	mean nuclei count
1	AKT3	1	0.23 (active)	migration reduced	5644
2	AKT3	2	-0.24 (active)	migration reduced	4296
3	AKT3	3	0.53 (active)	migration reduced	5706
4	AKT3	4	0.78	no change in migration or cell number	4584
5	PPP6R1	1	0.32 (active)	migration reduced	4440
6	PPP6R1	2	0.95	no change in migration or cell number	6080
7	PPP6R1	3	0.92	no change in migration or cell number	4241
8	PPP6R1	4	0.2 (active)	migration reduced	4242
9	CRCT1	1	0.24 (active)	migration reduced	4300
10	CRCT1	2	0.62	no change in migration or cell number	6964
11	CRCT1	3	0.6 (active)	migration reduced	4348
12	CRCT1	4	0.66	no change in migration or cell number	5280
13	MESP2	1	-0.09 (active)	migration reduced	3525
14	MESP2	2	0.6 (active)	migration reduced	5256
15	MESP2	3	1.21	no change in migration or cell number	5744
16	MESP2	4	0.8	no change in migration or cell number	5655
17	TNFRSF1B	1	0.8	no change in migration or cell number	5742
18	TNFRSF1B	2	0.14 (active)	migration reduced	3649
19	TNFRSF1B	3	0.69	no change in migration or cell number	4884
20	TNFRSF1B	4	0.6 (active)	migration reduced	5346
21	OR10H4	1	0.82	no change in migration or cell number	5111
22	OR10H4	2	0.84	no change in migration or cell number	6112
23	OR10H4	3	0.31 (active)	migration reduced	5022
24	OR10H4	4	0.5 (active)	migration reduced	5996
25	CSGALNACT1	1	0.82	no change in migration or cell number	6540
26	CSGALNACT1	2	0.86	no change in migration or cell number	6126
27	CSGALNACT1	3	0.51 (active)	migration reduced	6112
28	CSGALNACT1	4	1.15	no change in migration or cell number	6938
29	LGALS1	1	0.02 (active)	migration reduced	3910
30	LGALS1	2	0.26	too few cells; migration not scored	3264
31	LGALS1	3	0.76	no change in migration or cell number	5416
32	LGALS1	4	0.38 (active)	migration reduced	4761
33	MAPKAPK2	1	0.76	no change in migration or cell number	7128
34	MAPKAPK2	2	0.69	no change in migration or cell number	5842
35	MAPKAPK2	3	0.65	no change in migration or cell number	6599
36	MAPKAPK2	4	1	no change in migration or cell number	5679
37	EPOR	1	0.26 (active)	migration reduced	4304
38	EPOR	2	0.68	no change in migration or cell number	5072
39	EPOR	3	0.44 (active)	migration reduced	5024
40	EPOR	4	0.88	no change in migration or cell number	6776
41	LAX1	1	0.42 (active)	migration reduced	5006
42	LAX1	2	1.05	no change in migration or cell number	5920
43	LAX1	3	0.29	too few cells; migration not scored	3218
44	LAX1	4	0.82	no change in migration or cell number	5230
45	ACTBL2	1	0.74	no change in migration or cell number	6831
46	ACTBL2	2	1.26	no change in migration or cell number	5994
47	ACTBL2	3	-0.16 (active)	migration reduced	4343
48	ACTBL2	4	1	no change in migration or cell number	5548
49	ABLIM1	1	0.95	no change in migration or cell number	6625
50	ABLIM1	2	0.69	no change in migration or cell number	6175
51	ABLIM1	3	1.15	no change in migration or cell number	5836
52	ABLIM1	4	0.43 (active)	migration reduced	3370
53	TCEAL6	1	0.92	no change in migration or cell number	5888
54	TCEAL6	2	1.18	no change in migration or cell number	6140
55	TCEAL6	3	0.92	no change in migration or cell number	5010
56	TCEAL6	4	0.9	no change in migration or cell number	5639

The list goes on; the last 6 above are carried over.
no.	gene	reagent no.	migration relative to mock	migration and cell number class	mean nuclei count
51	ABLIM1	3	1.15	no change in migration or cell number	5836
52	ABLIM1	4	0.43 (active)	migration reduced	3370
53	TCEAL6	1	0.92	no change in migration or cell number	5888
54	TCEAL6	2	1.18	no change in migration or cell number	6140
55	TCEAL6	3	0.92	no change in migration or cell number	5010
56	TCEAL6	4	0.9	no change in migration or cell number	5639
57	MAGEA10	1	0.76	no change in migration or cell number	4552
58	MAGEA10	2	0.73	no change in migration or cell number	5242
59	MAGEA10	3	0.48 (active)	migration reduced	3435
60	MAGEA10	4	1.06	no change in migration or cell number	5279
61	OPRPN	1	1.1	no change in migration or cell number	6550
62	OPRPN	2	1.04	no change in migration or cell number	5038
63	OPRPN	3	1.08	no change in migration or cell number	5308
64	OPRPN	4	0.98	no change in migration or cell number	5280
65	CTR9	1	0.82	no change in migration or cell number	6356
66	CTR9	2	0.56 (active)	migration reduced	5627
67	CTR9	3	0.78	no change in migration or cell number	6474
68	CTR9	4	0.68	no change in migration or cell number	6039
69	AXL	1	0.88	no change in migration or cell number	6476
70	AXL	2	0.4 (active)	migration reduced	5740
71	AXL	3	0.94	no change in migration or cell number	8299
72	AXL	4	0.52 (active)	migration reduced	5906
73	ARMC10	1	0.92	no change in migration or cell number	5966
74	ARMC10	2	0.72	no change in migration or cell number	5634
75	ARMC10	3	0.78	no change in migration or cell number	6092
76	ARMC10	4	0.89	no change in migration or cell number	6410
77	RNASE7	1	0.86	no change in migration or cell number	5800
78	RNASE7	2	0.55 (active)	migration reduced	6784
79	RNASE7	3	0.29 (active)	migration reduced	4117
80	RNASE7	4	0.63	no change in migration or cell number	6308
81	ANGPT2	1	0.8	no change in migration or cell number	5984
82	ANGPT2	2	0.56 (active)	migration reduced	5910
83	ANGPT2	3	-0.78 (active)	migration reduced	3372
84	ANGPT2	4	0.4 (active)	migration reduced	3718
85	GIMAP8	1	0.99	no change in migration or cell number	6391
86	GIMAP8	2	0.8	no change in migration or cell number	6034
87	GIMAP8	3	0.83	no change in migration or cell number	5570
88	GIMAP8	4	0.76	no change in migration or cell number	5678
